The source gives many values for each of these; only a part stands here.
Legend:
Type in all cases: cell-based
Conditions in all cases: U-87MG ATCC
[1] = Inhibition of RTK/PI3K/AKT/mTOR signaling in human U87 cells assessed as up regulation of claudin 7 gene expression at cytotoxic IC50 measured after 48 hrs relative to control
[2] = Inhibition of RTK/PI3K/AKT/mTOR signaling in human U87 cells assessed as down regulation of PARVA gene expression at cytotoxic IC50 measured after 48 hrs relative to control
[3] = Inhibition of RTK/PI3K/AKT/mTOR signaling in human U87 cells assessed as down regulation of TPD52L2 gene expression at cytotoxic IC50 measured after 48 hrs relative to control
[4] = Inhibition of RTK/PI3K/AKT/mTOR signaling in human U87 cells assessed as up regulation of SLC35F2 gene expression at cytotoxic IC50 measured after 48 hrs relative to control
[5] = Inhibition of RTK/PI3K/AKT/mTOR signaling in human U87 cells assessed as down regulation of HAUS6 gene expression at cytotoxic IC50 measured after 48 hrs relative to control
[6] = Inhibition of RTK/PI3K/AKT/mTOR signaling in human U87 cells assessed as down regulation of CHAF1B gene expression at cytotoxic IC50 measured after 48 hrs relative to control
[7] = Inhibition of RTK/PI3K/AKT/mTOR signaling in human U87 cells assessed as down regulation of ACOT7 gene expression at cytotoxic IC50 measured after 48 hrs relative to control
[8] = Inhibition of RTK/PI3K/AKT/mTOR signaling in human U87 cells assessed as up regulation of FKBP9 gene expression at cytotoxic IC50 measured after 48 hrs relative to control
[9] = Inhibition of RTK/PI3K/AKT/mTOR signaling in human U87 cells assessed as down regulation of HNRNPA2B1 gene expression at cytotoxic IC50 measured after 48 hrs relative to control
[10] = Inhibition of RTK/PI3K/AKT/mTOR signaling in human U87 cells assessed as down regulation of PLEKHB2 gene expression at cytotoxic IC50 measured after 48 hrs relative to control
[11] = Inhibition of RTK/PI3K/AKT/mTOR signaling in human U87 cells assessed as up regulation of TP53 gene expression at cytotoxic IC50 measured after 48 hrs relative to control
[12] = Inhibition of RTK/PI3K/AKT/mTOR signaling in human U87 cells assessed as down regulation of NISCH gene expression at cytotoxic IC50 measured after 48 hrs relative to control
[13] = Inhibition of RTK/PI3K/AKT/mTOR signaling in human U87 cells assessed as down regulation of DUSP6 gene expression at cytotoxic IC50 measured after 48 hrs relative to control
[14] = Inhibition of RTK/PI3K/AKT/mTOR signaling in human U87 cells assessed as up regulation of ARMC4 gene expression at cytotoxic IC50 measured after 48 hrs relative to control
[15] = Inhibition of RTK/PI3K/AKT/mTOR signaling in human U87 cells assessed as up regulation of myosin light chain 6B gene expression at cytotoxic IC50 measured after 48 hrs relative to control
[16] = Inhibition of RTK/PI3K/AKT/mTOR signaling in human U87 cells assessed as up regulation of FOSL2 gene expression at cytotoxic IC50 measured after 48 hrs relative to control
[17] = Inhibition of RTK/PI3K/AKT/mTOR signaling in human U87 cells assessed as down regulation of DDAH1 gene expression at cytotoxic IC50 measured after 48 hrs relative to control
[18] = Inhibition of RTK/PI3K/AKT/mTOR signaling in human U87 cells assessed as down regulation of TSHZ1 gene expression at cytotoxic IC50 measured after 48 hrs relative to control
[19] = Inhibition of RTK/PI3K/AKT/mTOR signaling in human U87 cells assessed as up regulation of SREBF1 gene expression at cytotoxic IC50 measured after 48 hrs relative to control
[20] = Inhibition of RTK/PI3K/AKT/mTOR signaling in human U87 cells assessed as down regulation of SLC25A28 gene expression at cytotoxic IC50 measured after 48 hrs relative to control
[21] = Inhibition of RTK/PI3K/AKT/mTOR signaling in human U87 cells assessed as up regulation of BTBD19 gene expression at cytotoxic IC50 measured after 48 hrs relative to control
[22] = Inhibition of RTK/PI3K/AKT/mTOR signaling in human U87 cells assessed as up regulation of TBC1D20 gene expression at cytotoxic IC50 measured after 48 hrs relative to control
[23] = Inhibition of RTK/PI3K/AKT/mTOR signaling in human U87 cells assessed as up regulation of Rho GTPase activating protein 4 gene expression at cytotoxic IC50 measured after 48 hrs relative to control
[24] = Inhibition of RTK/PI3K/AKT/mTOR signaling in human U87 cells assessed as down regulation of ZBTB11 gene expression at cytotoxic IC50 measured after 48 hrs relative to control
[25] = Inhibition of RTK/PI3K/AKT/mTOR signaling in human U87 cells assessed as up regulation of SNCG gene expression at cytotoxic IC50 measured after 48 hrs relative to control
[26] = Inhibition of RTK/PI3K/AKT/mTOR signaling in human U87 cells assessed as up regulation of PGRMC2 gene expression at cytotoxic IC50 measured after 48 hrs relative to control
[27] = Inhibition of RTK/PI3K/AKT/mTOR signaling in human U87 cells assessed as up regulation of KN motif and ankyrin repeat domains 3 gene expression at cytotoxic IC50 measured after 48 hrs relative to control
[28] = Inhibition of RTK/PI3K/AKT/mTOR signaling in human U87 cells assessed as down regulation of RNF20 gene expression at cytotoxic IC50 measured after 48 hrs relative to control
[29] = Inhibition of RTK/PI3K/AKT/mTOR signaling in human U87 cells assessed as up regulation of DKC1 gene expression at cytotoxic IC50 measured after 48 hrs relative to control
[30] = Inhibition of RTK/PI3K/AKT/mTOR signaling in human U87 cells assessed as down regulation of CHSY3 gene expression at cytotoxic IC50 measured after 48 hrs relative to control
[31] = Inhibition of RTK/PI3K/AKT/mTOR signaling in human U87 cells assessed as up regulation of ACSM3 gene expression at cytotoxic IC50 measured after 48 hrs relative to control
[32] = Inhibition of RTK/PI3K/AKT/mTOR signaling in human U87 cells assessed as up regulation of SSBP4 gene expression at cytotoxic IC50 measured after 48 hrs relative to control

CC(=O)C(=NNc1ccccc1C#N)C(C)=O
log2FC [1]: 0.93 | log2FC [2]: -1.13 | log2FC [3]: -0.589 | log2FC [4]: 0.431 | log2FC [5]: -0.631 | log2FC [6]: -1.06 | log2FC [7]: -0.942 | log2FC [8]: 0.559 | log2FC [9]: -0.359 | log2FC [10]: -0.669 | log2FC [11]: 0.532 | log2FC [12]: -0.462 | log2FC [13]: -0.342 | log2FC [14]: 1.65 | log2FC [15]: 1.29 | log2FC [16]: 0.598 | log2FC [17]: -0.934 | log2FC [18]: -2.15 | log2FC [19]: 1.89 | log2FC [20]: -0.886 | log2FC [21]: 1.58 | log2FC [22]: 0.541 | log2FC [23]: 0.793 | log2FC [24]: -0.755 | log2FC [25]: 1.6 | log2FC [26]: 0.533 | log2FC [27]: 1.41 | log2FC [28]: -0.499 | log2FC [29]: 0.634 | log2FC [30]: -1.69 | log2FC [31]: 1.9 | log2FC [32]: 1.83
